This continues a long series; more values of the same kind are listed elsewhere.
Tests used:
Type in all cases: cell-based
Settings in all cases: U-87MG ATCC
[1] = Inhibition of RTK/PI3K/AKT/mTOR signaling in human U87 cells assessed as down regulation of CYTOR gene expression at cytotoxic IC50 measured after 48 hrs relative to control
[2] = Inhibition of RTK/PI3K/AKT/mTOR signaling in human U87 cells assessed as up regulation of ubiquitin specific peptidase 28 gene expression at cytotoxic IC50 measured after 48 hrs relative to control
[3] = Inhibition of RTK/PI3K/AKT/mTOR signaling in human U87 cells assessed as up regulation of CHML gene expression at cytotoxic IC50 measured after 48 hrs relative to control
[4] = Inhibition of RTK/PI3K/AKT/mTOR signaling in human U87 cells assessed as up regulation of Ras association domain family member 3 gene expression at cytotoxic IC50 measured after 48 hrs relative to control
[5] = Inhibition of RTK/PI3K/AKT/mTOR signaling in human U87 cells assessed as down regulation of KIF21A gene expression at cytotoxic IC50 measured after 48 hrs relative to control
[6] = Inhibition of RTK/PI3K/AKT/mTOR signaling in human U87 cells assessed as up regulation of Cbl proto-oncogene C gene expression at cytotoxic IC50 measured after 48 hrs relative to control
[7] = Inhibition of RTK/PI3K/AKT/mTOR signaling in human U87 cells assessed as down regulation of MAP1A gene expression at cytotoxic IC50 measured after 48 hrs relative to control
[8] = Inhibition of RTK/PI3K/AKT/mTOR signaling in human U87 cells assessed as up regulation of gasdermin B gene expression at cytotoxic IC50 measured after 48 hrs relative to control
[9] = Inhibition of RTK/PI3K/AKT/mTOR signaling in human U87 cells assessed as down regulation of SMG8 gene expression at cytotoxic IC50 measured after 48 hrs relative to control
[10] = Inhibition of RTK/PI3K/AKT/mTOR signaling in human U87 cells assessed as down regulation of INPP4A gene expression at cytotoxic IC50 measured after 48 hrs relative to control
[11] = Inhibition of RTK/PI3K/AKT/mTOR signaling in human U87 cells assessed as down regulation of CCT4 gene expression at cytotoxic IC50 measured after 48 hrs relative to control
[12] = Inhibition of RTK/PI3K/AKT/mTOR signaling in human U87 cells assessed as up regulation of eukaryotic translation initiation factor 2 subunit gamma gene expression at cytotoxic IC50 measured after 48 hrs relative to control
[13] = Inhibition of RTK/PI3K/AKT/mTOR signaling in human U87 cells assessed as up regulation of UBE2K gene expression at cytotoxic IC50 measured after 48 hrs relative to control
[14] = Inhibition of RTK/PI3K/AKT/mTOR signaling in human U87 cells assessed as down regulation of DRAXIN gene expression at cytotoxic IC50 measured after 48 hrs relative to control
[15] = Inhibition of RTK/PI3K/AKT/mTOR signaling in human U87 cells assessed as up regulation of methionyl aminopeptidase type 1D, mitochondrial gene expression at cytotoxic IC50 measured after 48 hrs relative to control
[16] = Inhibition of RTK/PI3K/AKT/mTOR signaling in human U87 cells assessed as up regulation of NOD2 gene expression at cytotoxic IC50 measured after 48 hrs relative to control
[17] = Inhibition of RTK/PI3K/AKT/mTOR signaling in human U87 cells assessed as up regulation of chromosome 15 open reading frame 52 gene expression at cytotoxic IC50 measured after 48 hrs relative to control
[18] = Inhibition of RTK/PI3K/AKT/mTOR signaling in human U87 cells assessed as up regulation of RPL32 gene expression at cytotoxic IC50 measured after 48 hrs relative to control
[19] = Inhibition of RTK/PI3K/AKT/mTOR signaling in human U87 cells assessed as down regulation of MPV17 gene expression at cytotoxic IC50 measured after 48 hrs relative to control
[20] = Inhibition of RTK/PI3K/AKT/mTOR signaling in human U87 cells assessed as down regulation of CKS2 gene expression at cytotoxic IC50 measured after 48 hrs relative to control
[21] = Inhibition of RTK/PI3K/AKT/mTOR signaling in human U87 cells assessed as up regulation of ESRP1 gene expression at cytotoxic IC50 measured after 48 hrs relative to control
[22] = Inhibition of RTK/PI3K/AKT/mTOR signaling in human U87 cells assessed as down regulation of GTPBP1 gene expression at cytotoxic IC50 measured after 48 hrs relative to control
[23] = Inhibition of RTK/PI3K/AKT/mTOR signaling in human U87 cells assessed as up regulation of PRPH gene expression at cytotoxic IC50 measured after 48 hrs relative to control
[24] = Inhibition of RTK/PI3K/AKT/mTOR signaling in human U87 cells assessed as up regulation of stomatin gene expression at cytotoxic IC50 measured after 48 hrs relative to control
[25] = Inhibition of RTK/PI3K/AKT/mTOR signaling in human U87 cells assessed as up regulation of NOVA alternative splicing regulator 2 gene expression at cytotoxic IC50 measured after 48 hrs relative to control
[26] = Inhibition of RTK/PI3K/AKT/mTOR signaling in human U87 cells assessed as down regulation of ZNF138 gene expression at cytotoxic IC50 measured after 48 hrs relative to control
[27] = Inhibition of RTK/PI3K/AKT/mTOR signaling in human U87 cells assessed as up regulation of leucine zipper tumor suppressor 2 gene expression at cytotoxic IC50 measured after 48 hrs relative to control
[28] = Inhibition of RTK/PI3K/AKT/mTOR signaling in human U87 cells assessed as up regulation of ABHD14B gene expression at cytotoxic IC50 measured after 48 hrs relative to control
[29] = Inhibition of RTK/PI3K/AKT/mTOR signaling in human U87 cells assessed as down regulation of CYP4F11 gene expression at cytotoxic IC50 measured after 48 hrs relative to control
[30] = Inhibition of RTK/PI3K/AKT/mTOR signaling in human U87 cells assessed as up regulation of LCN2 gene expression at cytotoxic IC50 measured after 48 hrs relative to control
[31] = Inhibition of RTK/PI3K/AKT/mTOR signaling in human U87 cells assessed as up regulation of cadherin 1 gene expression at cytotoxic IC50 measured after 48 hrs relative to control
[32] = Inhibition of RTK/PI3K/AKT/mTOR signaling in human U87 cells assessed as down regulation of ITPRIP gene expression at cytotoxic IC50 measured after 48 hrs relative to control

SMILES: CC(=O)C(=NNc1ccccc1C#N)C(C)=O
- log2FC [1]: -2.1
- log2FC [2]: 1.03
- log2FC [3]: 1.66
- log2FC [4]: 1.13
- log2FC [5]: -1.12
- log2FC [6]: 0.752
- log2FC [7]: -2
- log2FC [8]: 0.928
- log2FC [9]: -0.608
- log2FC [10]: -0.819
- log2FC [11]: -0.396
- log2FC [12]: 0.712
- log2FC [13]: 0.593
- log2FC [14]: -1.26
- log2FC [15]: 1.45
- log2FC [16]: 1.9
- log2FC [17]: 1.52
- log2FC [18]: 0.388
- log2FC [19]: -0.843
- log2FC [20]: -0.782
- log2FC [21]: 0.609
- log2FC [22]: -0.831
- log2FC [23]: 1.75
- log2FC [24]: 0.857
- log2FC [25]: 1.55
- log2FC [26]: -2.04
- log2FC [27]: 1.25
- log2FC [28]: 0.601
- log2FC [29]: -1.38
- log2FC [30]: 2.66
- log2FC [31]: 1.21
- log2FC [32]: -1.55

From ChEMBL document CHEMBL4316593 (Eur J Med Chem, 2019)
